The list shows a part of the results. Single values are uncertain, as repeats are few or missing.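 The assay uses a mixed pool of 41 HAP1 clones in which 61 cancer-associated proteins bear intron-inserted fluorescent tags, and clones are distinguished by image pattern. Results are compared against DMSO-treated control wells, and the BRD4 degrader dBET6 is the positive control.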

Sequences of proteins named here, by UniProt entry; tags and fusion partners are left off.
UniProt O14980, whole entry: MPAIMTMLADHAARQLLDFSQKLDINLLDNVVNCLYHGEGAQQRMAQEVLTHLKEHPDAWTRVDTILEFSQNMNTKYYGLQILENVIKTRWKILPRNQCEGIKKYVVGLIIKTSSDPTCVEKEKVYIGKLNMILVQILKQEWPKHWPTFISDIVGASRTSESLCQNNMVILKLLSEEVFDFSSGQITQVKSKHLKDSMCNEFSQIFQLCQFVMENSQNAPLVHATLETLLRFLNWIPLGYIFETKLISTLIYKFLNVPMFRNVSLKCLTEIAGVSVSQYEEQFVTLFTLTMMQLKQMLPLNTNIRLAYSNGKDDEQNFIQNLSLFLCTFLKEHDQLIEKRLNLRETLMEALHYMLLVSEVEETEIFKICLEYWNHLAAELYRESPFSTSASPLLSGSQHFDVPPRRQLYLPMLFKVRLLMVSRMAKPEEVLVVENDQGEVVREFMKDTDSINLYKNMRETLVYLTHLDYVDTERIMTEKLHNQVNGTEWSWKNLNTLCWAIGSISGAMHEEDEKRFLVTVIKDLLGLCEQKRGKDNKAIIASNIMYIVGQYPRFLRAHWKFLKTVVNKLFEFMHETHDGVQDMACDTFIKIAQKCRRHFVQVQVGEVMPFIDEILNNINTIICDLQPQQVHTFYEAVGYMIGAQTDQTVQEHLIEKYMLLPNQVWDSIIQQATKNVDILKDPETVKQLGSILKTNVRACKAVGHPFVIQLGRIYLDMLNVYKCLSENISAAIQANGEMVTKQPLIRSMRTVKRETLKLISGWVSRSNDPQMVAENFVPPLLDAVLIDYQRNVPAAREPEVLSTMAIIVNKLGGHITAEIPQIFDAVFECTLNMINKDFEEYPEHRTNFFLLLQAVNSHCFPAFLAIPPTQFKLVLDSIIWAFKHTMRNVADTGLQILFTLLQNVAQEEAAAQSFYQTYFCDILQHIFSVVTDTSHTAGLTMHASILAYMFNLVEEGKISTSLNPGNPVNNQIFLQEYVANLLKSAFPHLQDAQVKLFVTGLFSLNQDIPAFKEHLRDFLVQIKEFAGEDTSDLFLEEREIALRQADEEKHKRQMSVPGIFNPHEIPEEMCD

The first test has as its target XPO1 (intron 15 mScarlet tag, HAP1) (UniProt O14980). Briefly: XPO1 fluorescence intensity change vs DMSO (log2 fold change); higher = more XPO1 protein. Particulars: 6 h.
`C/C=C(/C)C(=O)O[C@H]1C(C)=C2[C@H]([C@@H]1OC(=O)CCCCCCC)[C@@](C)(OC(C)=O)C[C@H](OC(=O)CCC)[C@@]1(O)[C@H]2OC(=O)[C@@]1(C)O` [thapsigargin] (10 µM): the “XPO1 fluorescence intensity change (log2)” value is 0.119.
The same measure, in the same setting: for `CN[C@@H]1C[C@H]2O[C@@](C)([C@@H]1OC)n1c3ccccc3c3c4c(c5c6ccccc6n2c5c31)C(=O)NC4` [staurosporine] (10 µM) the value was -0.0842.
Regarding `CCOc1ccccc1-n1c(C(C)N2CCN(C(=O)COc3ccc(Cl)cc3)CC2)nc2ccccc2c1=O` (stereo not given) [erastin] (10 µM), the “XPO1 fluorescence intensity change (log2)” value is -0.0776.
On the same count and under the same terms, as for `O=c1c2ccccc2nc(CCl)n1-c1ccc(F)cc1` (10 µM), the figure is -0.173; as for `[O-][Cl+3]([O-])([O-])[O-].[O-][Cl+3]([O-])([O-])[O-].c1c[n+]2cn1CCCC[n+]1ccn(c1)CCCC2` (10 µM), -0.0677; as for `CCOc1ccc(-n2c(CCl)nc3ccccc3c2=O)cc1` (10 µM), -0.0209.

The target of another test is BRD4 (intron 10 mScarlet tag, HAP1) (UniProt O60885). Briefly: BRD4 median nuclear fluorescence intensity change vs DMSO (log2 fold change); higher = more BRD4 protein. To be noted: 6 h.
With `CC(C)(O)C(=O)Nc1ccc([N+](=O)[O-])c(C(F)(F)F)c1` [hydroxyflutamide] (10 µM), the “BRD4 median nuclear fluorescence intensity change (log2)” value came to 0.0177.
On the same count and under the same terms, for `N[C@@H]1C[C@H]1c1ccccc1.N[C@H]1C[C@@H]1c1ccccc1` [tranylcypromine] (10.0004 µM) the value was 0.0423; for `CN1C[C@H](C(=O)N[C@]2(C)O[C@@]3(O)[C@@H]4CCCN4C(=O)[C@H](Cc4ccccc4)N3C2=O)C[C@@H]2c3cccc4[nH]cc(c34)C[C@H]21` [dihydroergotamine] (9.9995338 µM), 0.0781.
The same measure, in the same setting: as for `C/C=C(/C)C(=O)O[C@H]1C(C)=C2[C@H]([C@@H]1OC(=O)CCCCCCC)[C@@](C)(OC(C)=O)C[C@H](OC(=O)CCC)[C@@]1(O)[C@H]2OC(=O)[C@@]1(C)O` [thapsigargin] (10 µM), the figure is -0.19.
Same read-out and setting: as for `CN(C)C(=O)Oc1ccc[n+](C)c1` [pyridostigmine  bromide] (10 µM), the figure is 0.0758; as for `CCC1(c2ccc(N)cc2)CCC(=O)NC1=O` (stereo not given) [aminoglutethimide] (20 µM), -0.0584; as for `Cc1cccc([C@H](C)c2c[nH]cn2)c1C` [dexmedetomidine] (10.0000196 µM), 0.0285.
`Cn1c(CCCC(=O)O)nc2cc(N(CCCl)CCCl)ccc21` [bendamustine] (20 µM): the “BRD4 median nuclear fluorescence intensity change (log2)” value came to 0.0445.
Still for that read-out and setting: as for `COCC1(CO)C(=O)C2CCN1CC2` (stereo not given) [prima-1 met] (20 µM), the figure is 0.00841.
Still for that read-out and setting: for `O=P1(N(CCCl)CCCl)NCCCO1` (stereo not given) [cyclophosphamide] (10 µM) the value was 0.0725.
With `COc1cc2c(cc1OC)C1CC(=O)C(CC(C)C)CN1CC2` (stereo not given) [tetrabenazine] (10 µM), the “BRD4 median nuclear fluorescence intensity change (log2)” value was -0.0129.
With `NCC(CC(=O)O)c1ccc(Cl)cc1` (stereo not given) [baclofen] (10 µM), the “BRD4 median nuclear fluorescence intensity change (log2)” value is -0.0443.
The same measure, in the same setting: as for `CC(C)[C@]12O[C@H]1[C@@H]1O[C@]13[C@]1(O[C@H]1C[C@H]1C4=C(CC[C@@]13C)C(=O)OC4)[C@@H]2O` [triptolide] (10 µM), the figure is -0.0455; as for `C=C1C[C@@H]2[C@H](CC[C@]3(C)C(=O)CC[C@@H]23)[C@@]2(C)C=CC(=O)C=C12` [exemestane] (20 µM), -0.081.
The same measure, in the same setting: for `C[C@]12CC[C@H]3[C@@H](CCC4=CC(=O)CC[C@@]43C)[C@@H]1CC[C@@H]2O` [testosterone] (10.00049246 µM) the value was 0.065; for `N[C@@H](Cc1ccc(N(CCCl)CCCl)cc1)C(=O)O` [melphalan] (10 µM), 0.0129; for `CN[C@@H]1C[C@H]2O[C@@](C)([C@@H]1OC)n1c3ccccc3c3c4c(c5c6ccccc6n2c5c31)C(=O)NC4` [staurosporine] (10 µM), 0.0944.
On the same count and under the same terms, for `CCN(C(C)=O)c1cccc(-c2ccnc3c(C#N)cnn23)c1` [zaleplon] (10.0001 µM) the value was 0.0582; for `CC(O)(CS(=O)(=O)c1ccc(F)cc1)C(=O)Nc1ccc(C#N)c(C(F)(F)F)c1` (stereo not given) [bicalutamide] (20 µM), 0.0457.
On to `N.N.[Cl][Pt][Cl]` [cisplatin] (20 µM), for which the “BRD4 median nuclear fluorescence intensity change (log2)” value came to 0.196.
The same measure, in the same setting: for `CCC(C)C(C)(COC(N)=O)COC(N)=O` (stereo not given) [mebutamate] (10 µM) the value was 0.0245.
As to `C[C@]12O[C@H](C[C@]1(O)CO)n1c3ccccc3c3c4c(c5c6ccccc6n2c5c31)CNC4=O` [lestaurtinib] (2 µM), the “BRD4 median nuclear fluorescence intensity change (log2)” value is -0.0489.
Same read-out and setting: for `O=c1[nH]c2ccc(Cl)cc2c(N[C@@H]2CN3CCC2CC3)c1-c1nc2ccccc2[nH]1` [chir-124] (20 µM) the value was 0.0195.
On the same count and under the same terms, as for `C[C@]12CC[C@H]3[C@@H](CC[C@@]45O[C@@H]4C(O)=C(C#N)C[C@]35C)[C@@H]1CC[C@@H]2O` [trilostane] (9.99988 µM), the figure is 0.00913.

These data come from the supplement of paper PMC11098740.
